{
  "source": "patent EP2221053A1",
  "about": "“Pharmaceutical composition comprising protein methyltransferase I inhibitors and its use for treating tumour diseases” (Albert-Ludwigs-Universität Freiburg, priority 2009, dated 2010)",
  "molecular_target": "T1, SET7/9 (Homo sapiens, UniProt Q8WTS6)",
  "T1 sequence (Q8WTS6 1-366)": "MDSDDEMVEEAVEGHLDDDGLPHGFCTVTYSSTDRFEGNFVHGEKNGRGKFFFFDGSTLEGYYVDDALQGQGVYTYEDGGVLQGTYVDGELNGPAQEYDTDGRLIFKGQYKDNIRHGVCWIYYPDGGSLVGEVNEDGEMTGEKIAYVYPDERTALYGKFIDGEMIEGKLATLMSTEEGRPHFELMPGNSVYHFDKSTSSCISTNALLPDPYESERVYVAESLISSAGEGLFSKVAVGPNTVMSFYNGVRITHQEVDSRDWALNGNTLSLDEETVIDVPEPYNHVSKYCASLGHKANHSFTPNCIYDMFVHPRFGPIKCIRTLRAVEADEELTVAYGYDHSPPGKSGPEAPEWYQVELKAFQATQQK",
  "test": "In vitro selectivity test against lysine methyltransferase",
  "format": "biochemical",
  "conditions": "in words",
  "excerpt": "Für die Enzymhemmung wurde ein Assay verwendet, der auf immobilisierten Oligopeptiden als Enzymsubstrate und den entsprechenden Enzymen beruht. Die Quantifizierung der Methylierung erfolgt über einen Antikörper gegen das Dimethylarginin und die Detektion über einen Europium gelabelten Sekundärantikörper. Die potentesten Verbindungen wurden ebenfalls in-vitro auf ihre Selektivität gegenüber SET7/9, einer Lysinmonomethyltransferase untersucht. Die Methodik der verwendeten Testverfahren ist im Detail in der Dissertation von Astrid Spannhoff, \"Neue Testsysteme für Histonmethyltransferasen und Histondemethylasen\", Albert-Ludwigs-Universität Freiburg, 2007 beschrieben. Der Offenbarungsgehalt dieser Arbeit wird durch Bezugnahme hier eingeschlossen.",
  "note": "At least one structure is not confirmed: it was looked up by name or label, or the drawing left a doubt.",
  "data": [
    {"smiles": "N=C(N)c1ccc(C=Cc2ccc(C(=N)N)cc2)cc1", "note": "[Stilbamidin]", "values": [
      {"measurement": "Selektivität gegenüber SET7/9", "result": "selektiv"}
    ]}
  ]
}
